Common to all, as to experiment: co-IP; transfected HEK293T cells lysed in 20 mM Tris pH 7.4, 150 mM NaCl, 1 mM EDTA, 10% glycerol, 1% NP-40; immunoprecipitation with anti-Flag M2 beads for 3-4 h; immunoblot with anti-Myc, anti-HA or anti-Flag
In test [1] the target is T1, Flag-IKKβ (human (amplified from HeLa cells)) (UniProt O14920).
T1 sequence: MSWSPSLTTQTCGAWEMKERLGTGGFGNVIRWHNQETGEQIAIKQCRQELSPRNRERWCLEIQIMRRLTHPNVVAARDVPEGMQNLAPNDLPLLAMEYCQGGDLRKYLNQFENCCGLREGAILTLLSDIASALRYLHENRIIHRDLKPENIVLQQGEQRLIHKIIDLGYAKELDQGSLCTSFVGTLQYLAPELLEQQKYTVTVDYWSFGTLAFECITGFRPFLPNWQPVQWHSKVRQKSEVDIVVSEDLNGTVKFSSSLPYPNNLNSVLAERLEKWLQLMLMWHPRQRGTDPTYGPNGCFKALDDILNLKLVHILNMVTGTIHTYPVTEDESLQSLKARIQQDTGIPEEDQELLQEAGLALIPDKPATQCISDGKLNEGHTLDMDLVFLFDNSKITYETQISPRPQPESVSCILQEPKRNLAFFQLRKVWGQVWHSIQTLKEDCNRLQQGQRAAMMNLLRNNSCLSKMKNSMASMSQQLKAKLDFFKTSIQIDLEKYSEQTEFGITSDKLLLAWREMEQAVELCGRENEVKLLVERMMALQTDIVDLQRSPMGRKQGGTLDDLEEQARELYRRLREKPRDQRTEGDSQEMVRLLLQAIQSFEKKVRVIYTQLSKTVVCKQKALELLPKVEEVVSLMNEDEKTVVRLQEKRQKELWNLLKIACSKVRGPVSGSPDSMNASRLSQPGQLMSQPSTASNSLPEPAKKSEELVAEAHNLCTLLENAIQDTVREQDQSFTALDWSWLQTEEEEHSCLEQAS

Sequences of proteins named here, by UniProt entry; tags and fusion partners are left off. A change or cut given only in a name is not applied to a line headed by its entry. A line that says so, or that is headed by a name, gives the form on record, which may keep a tag or linker. Residues count along the entry.
Flag-Stk24-C terminus (amino acids 314–431 of Stk24) (Q9Y6E0, residues 326-443): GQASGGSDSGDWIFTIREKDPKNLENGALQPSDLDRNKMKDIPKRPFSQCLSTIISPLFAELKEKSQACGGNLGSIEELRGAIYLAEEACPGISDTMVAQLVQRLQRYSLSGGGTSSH
Myc-Stk24 (Q9Y6E0-2, form named): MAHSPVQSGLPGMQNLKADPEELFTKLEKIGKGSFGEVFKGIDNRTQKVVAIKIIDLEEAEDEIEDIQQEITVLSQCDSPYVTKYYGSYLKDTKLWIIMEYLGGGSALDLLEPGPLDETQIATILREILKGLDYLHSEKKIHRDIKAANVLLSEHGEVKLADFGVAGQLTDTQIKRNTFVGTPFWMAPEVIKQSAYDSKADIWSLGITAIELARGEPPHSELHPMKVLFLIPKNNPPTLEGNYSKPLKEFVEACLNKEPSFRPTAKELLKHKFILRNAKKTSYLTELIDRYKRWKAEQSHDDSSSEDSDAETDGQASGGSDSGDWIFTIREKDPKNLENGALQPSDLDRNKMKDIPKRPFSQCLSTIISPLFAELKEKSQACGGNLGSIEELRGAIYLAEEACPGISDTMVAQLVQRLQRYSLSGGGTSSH
Flag-Stk24-N terminus (amino acids 1–313 of Stk24) (Q9Y6E0-2, form named): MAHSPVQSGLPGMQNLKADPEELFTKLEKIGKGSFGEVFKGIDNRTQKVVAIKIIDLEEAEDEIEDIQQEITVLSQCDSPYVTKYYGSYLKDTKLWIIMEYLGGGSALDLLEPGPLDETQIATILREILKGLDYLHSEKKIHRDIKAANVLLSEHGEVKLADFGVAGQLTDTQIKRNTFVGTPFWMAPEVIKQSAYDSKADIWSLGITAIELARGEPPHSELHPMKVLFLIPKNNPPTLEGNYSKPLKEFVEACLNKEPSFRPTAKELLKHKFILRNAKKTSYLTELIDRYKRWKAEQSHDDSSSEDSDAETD

The target in test [2] is T2, Flag-IKKβ-HLH (amino acids 577–756 of IKKβ) (human (amplified from HeLa cells)) (UniProt O14920).
T2 sequence: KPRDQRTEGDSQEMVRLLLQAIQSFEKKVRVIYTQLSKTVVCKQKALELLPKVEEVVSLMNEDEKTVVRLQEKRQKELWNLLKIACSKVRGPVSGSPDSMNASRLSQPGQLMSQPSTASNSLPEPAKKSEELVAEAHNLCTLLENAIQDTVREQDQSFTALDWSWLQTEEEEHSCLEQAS

Test [3] deals with T3, Flag-TAK1 (UniProt O43318).
T3 sequence: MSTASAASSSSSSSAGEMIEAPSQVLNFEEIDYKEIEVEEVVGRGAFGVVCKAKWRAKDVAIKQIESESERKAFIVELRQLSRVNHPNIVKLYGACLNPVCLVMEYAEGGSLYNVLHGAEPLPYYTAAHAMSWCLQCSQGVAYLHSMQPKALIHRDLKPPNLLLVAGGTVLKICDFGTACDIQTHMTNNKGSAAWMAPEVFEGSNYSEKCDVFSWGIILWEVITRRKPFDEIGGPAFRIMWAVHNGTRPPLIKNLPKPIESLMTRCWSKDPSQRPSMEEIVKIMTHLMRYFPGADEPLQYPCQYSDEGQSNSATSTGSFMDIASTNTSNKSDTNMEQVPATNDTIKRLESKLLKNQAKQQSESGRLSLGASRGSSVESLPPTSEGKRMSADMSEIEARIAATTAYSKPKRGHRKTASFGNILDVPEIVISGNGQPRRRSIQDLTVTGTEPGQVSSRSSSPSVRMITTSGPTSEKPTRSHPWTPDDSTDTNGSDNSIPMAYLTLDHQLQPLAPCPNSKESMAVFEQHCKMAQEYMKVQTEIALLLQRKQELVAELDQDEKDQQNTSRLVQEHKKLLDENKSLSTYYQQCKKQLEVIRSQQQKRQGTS

In test [4] the target is T4, Flag-TAK1-N terminal (amino acids 1–303) (UniProt O43318).
T4 sequence: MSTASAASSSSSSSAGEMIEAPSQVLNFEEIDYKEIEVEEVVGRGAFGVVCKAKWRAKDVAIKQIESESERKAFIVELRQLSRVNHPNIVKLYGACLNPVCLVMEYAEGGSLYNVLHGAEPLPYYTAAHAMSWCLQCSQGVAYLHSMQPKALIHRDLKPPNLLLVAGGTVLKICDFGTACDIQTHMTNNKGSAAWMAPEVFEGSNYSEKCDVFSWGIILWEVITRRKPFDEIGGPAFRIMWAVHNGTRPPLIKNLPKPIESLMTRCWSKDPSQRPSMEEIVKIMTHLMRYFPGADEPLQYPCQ

The target in test [5] is Flag-Stk24-C terminus (amino acids 314–431 of Stk24) (human) (UniProt Q9Y6E0).
In test [6] the target is Flag-Stk24-N terminus (amino acids 1–313 of Stk24) (human) (UniProt Q9Y6E0).

No constants are given. Whether binding was seen depends on the method and setting. Binding seen in cells or lysates may run through a third protein. Some results given as binding are weak or reduced against the parent protein; the word gives no strength. Where a sequence is shown, tags or fusion partners need not be part of it.

For the molecule Myc-Stk24 (from UniProt Q9Y6E0-2 1-431), the binding result in test [1], in test [2], in test [3] and in test [4] was “binds” each time.

B1: Myc-IKKβ (protein, UniProt O14920 1-756)
chain: T1 sequence
Regarding B1, the binding result was “binds” in test [5] and “no binding” in test [6].

The values are drawn from PMC5936754.
